# Results are given in words; binding and its absence hold for the method and conditions named. Where a sequence is shown, tags or fusion partners need not be part of it.
# T1: His-tagged Human ACVR2B (human) (UniProt Q13705)
# T1 sequence (looked up): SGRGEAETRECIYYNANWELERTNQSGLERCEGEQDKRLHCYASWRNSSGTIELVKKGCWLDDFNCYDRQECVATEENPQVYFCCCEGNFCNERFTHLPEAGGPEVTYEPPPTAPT
# T2: His-tagged Mouse ACVR2B (mouse) (UniProt P27040)
# T2 sequence (looked up): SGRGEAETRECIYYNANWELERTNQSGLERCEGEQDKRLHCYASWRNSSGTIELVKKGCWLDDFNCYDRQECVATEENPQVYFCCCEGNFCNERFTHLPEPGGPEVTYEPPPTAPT
# What was measured:
# [1] = biological target: T1, His-tagged Human ACVR2B (human); assay: ELISA, coated antigen, 10 pt
# [2] = biological target: T2, His-tagged Mouse ACVR2B (mouse); assay: ELISA, coated antigen, 10 pt
binding [1],binding [2],Binder
no binding (tested: 1 uM),no binding (tested: 1 uM),"375_E10 (antibody, V domains shown) VH: EVQLLESGGGLVQPGGSLRLSCAASGFTFSSYSMNWVRQAPGKGLEWVSGINYNGGYTSYADSVKGRFTISRDNSKNTLYLQMNSLRAEDTAVYYCARGANWHDTALDYWGQGTLVTVSS VL: DIQMTQSPSSLSASVGDRVTITCRASQSILSYLNWYQQKPGKAPKLVIYAATSRASGVPSRFSGSGSGTDFTLTISSLQPEDFATYYCQQSYDNPLTFGGGTKVEIK"
no binding (tested: 1 uM),no binding (tested: 1 uM),"376_H11 (antibody, V domains shown) VH: EVQLLESGGGLVQPGGSLRLSCAASGFTFDSYSMNWVRQAPGKGLEWVSNINYNGGYTGYADSVKGRFTISRDNSKNTLYLQMNSLRAEDTAVYYCARGANWHDTALDYWGQGTLVTVSS VL: DIQMTQSPSSLSASVGDRVTITCRASQSISRYLNWYQQKPGKAPKLLIYAVTSLASGVPSRFSGSGSGTDFTLTISSLQPEDFATYYCQQSYESPLTFGGGTKVEIK"
no binding (tested: 1 uM),no binding (tested: 1 uM),"375_F02 (antibody, V domains shown) VH: EVQLLESGGGLVQPGGSLRLSCAASGFTFSSYSMNWVRQAPGKGLEWVASINYNSGYTSYADSVKGRFTISRDNSKNTLYLQMNSLRAEDTAVYYCARGANWHDTHLDYWGQGTLVTVSS VL: DIQMTQSPSSLSASVGDRVTITCRASQSILSYLNWYQQKPGKAPKLLIYAATSRASGVPSRFSGSGSGTDFTLTISSLQPEDFATYYCQQSYDSPLTFGGGTKVEIK"
no binding (tested: 1 uM),no binding (tested: 1 uM),"376_F06 (antibody, V domains shown) VH: EVQLLESGGGLVQPGGSLRLSCAASGFTFSSYGMNWVRQAPGKGLEWVSGINYNGGYTGYADSVKGRFTISRDNSKNTLYLQMNSLRAEDTAVYYCARGANWHDTHLDYWGQGTLVTVSS VL: DIQMTQSPSSLSASVGDRVTITCRASQSILTYVNWYQQKPGKAPKLVIYAATSRASGVPSRFSGSGSGTDFTLTISSLQPEDFATYYCQQSYETPLTFGGGTKVEIK"
no binding (tested: 1 uM),no binding (tested: 1 uM),"375_H05 (antibody, V domains shown) VH: EVQLLESGGGLVQPGGSLRLSCAASGFTFSSYSMNWVRQAPGKGLEWVSNINYNGGYTGYADSVKGRFTISRDNSKNTLYLQMNSLRAEDTAVYYCARGANWHDTALDYWGQGTLVTVSS VL: DIQMTQSPSSLSASVGDRVTITCRASQSILSYVNWYQQKPGKAPKLLIYAATSRASGVPSRFSGSGSGTDFTLTISSLQPEDFATYYCQQSYDTPLTFGGGTKVEIK"

# The next lines start with the binder.
Binder,binding [1],binding [2]
"369_H12 (antibody, V domains shown) VH: EVQLLESGGGLVQPGGSLRLSCAASGFTFSSYSMNWVRQAPGKGLEWVAGINYNGGYKSYADSVKGRFTISRDNSKNTLYLQMNSLRAEDTAVYYCARGATWHDTHLDYWGQGTLVTVSS VL: DIQMTQSPSSLSASVGDRVTITCRASQSIVTYVNWYQQKPGKAPKLVIYAATSRASGVPSRFSGSGSGTDFTLTISSLQPEDFATYYCQQSYDSPLTFGGGTKVEIK",no binding (tested: 1 uM),no binding (tested: 1 uM)
"373_A10 (antibody, V domains shown) VH: EVQLLESGGGLVQPGGSLRLSCAASGFTFSSYGMNWVRQAPGKGLEWVSGINYNSGYTSYADSVKGRFTISRDNSKNTLYLQMNSLRAEDTAVYYCARSANWHDTALDYWGQGTLVTVSS VL: DIQMTQSPSSLSASVGDRVTITCRASQSILSYLNWYQQKPGKAPKLVIYAATSRASGVPSRFSGSGSGTDFTLTISSLQPEDFATYYCQQSYDLPLTFGGGTKVEIK",–,no binding (tested: 1 uM top)
"369_C12 (antibody, V domains shown) VH: EVQLLESGGGLVQPGGSLRLSCAASGFTFSSYGMNWVRQAPGKGLEWVANINYNGGYKGYADSVKGRFTISRDNSKNTLYLQMNSLRAEDTAVYYCARGATWHDTHLDYWGQGTLVTVSS VL: DIQMTQSPSSLSASVGDRVTITCRASQSILTYLNWYQQKPGKAPKLLIYAATSRHSGVPSRFSGSGSGTDFTLTISSLQPEDFATYYCQQSYDTPLTFGGGTKVEIK",no binding (tested: 1 uM),no binding (tested: 1 uM)
"368_G03 (antibody, V domains shown) VH: EVQLLESGGGLVQPGGSLRLSCAASGFTFSSYSMNWVRQAPGKGLEWVSGINYNSGYTSYADSVKGRFTISRDNSKNTLYLQMNSLRAEDTAVYYCARGATWHDTALDYWGQGTLVTVSS VL: DIQMTQSPSSLSASVGDRVTITCRASQSILSYLNWYQQKPGKAPKLVIYAATSRASGVPSRFSGSGSGTDFTLTISSLQPEDFATYYCQQSYDTPLTFGGGTKVEIK",no binding (tested: 1 uM),no binding (tested: 1 uM)
"370_D03 (antibody, V domains shown) VH: EVQLLESGGGLVQPGGSLRLSCAASGFTFSSYSMNWVRQAPGKGLEWVASINYNGGYTSYADSVKGRFTISRDNSKNTLYLQMNSLRAEDTAVYYCARGATWHDTHLDYWGQGTLVTVSS VL: DIQMTQSPSSLSASVGDRVTITCRASQSIITYLNWYQQKPGKAPKLLIYAATSRASGVPSRFSGSGSGTDFTLTISSLQPEDFATYYCQQSYDLPLTFGGGTKVEIK",no binding (tested: 1 uM),no binding (tested: 1 uM)
"369_H08 (antibody, V domains shown) VH: EVQLLESGGGLVQPGGSLRLSCAASGFTFSSYSMNWVRQAPGKGLEWVAGINYNSGYKSYADSVKGRFTISRDNSKNTLYLQMNSLRAEDTAVYYCARGATWHDTHLDYWGQGTLVTVSS VL: DIQMTQSPSSLSASVGDRVTITCRASQSILSYVNWYQQKPGKAPKLVIYAATSLASGVPSRFSGSGSGTDFTLTISSLQPEDFATYYCQQSYESPLTFGGGTKVEIK",no binding (tested: 1 uM),no binding (tested: 1 uM)
"367_A02 (antibody, V domains shown) VH: EVQLLESGGGLVQPGGSLRLSCAASGFTFDSYGMNWVRQAPGKGLEWVSSINYNSGYKGYADSVKGRFTISRDNSKNTLYLQMNSLRAEDTAVYYCARGATWHDTHLDYWGQGTLVTVSS VL: DIQMTQSPSSLSASVGDRVTITCRASQSIISYLNWYQQKPGKAPKLLIYAVTSRASGVPSRFSGSGSGTDFTLTISSLQPEDFATYYCQQSYDTPLTFGGGTKVEIK",no binding (tested: 1 uM),no binding (tested: 1 uM)
"370_C07 (antibody, V domains shown) VH: EVQLLESGGGLVQPGGSLRLSCAASGFTFSSYSMNWVRQAPGKGLEWVANINYNGGYKSYADSVKGRFTISRDNSKNTLYLQMNSLRAEDTAVYYCARGATWHDTHLDYWGQGTLVTVSS VL: DIQMTQSPSSLSASVGDRVTITCRASQSILSYLNWYQQKPGKAPKLLIYAATSRHSGVPSRFSGSGSGTDFTLTISSLQPEDFATYYCQQSYESPLTFGGGTKVEIK",no binding (tested: 1 uM),no binding (tested: 1 uM)
"370_E04 (antibody, V domains shown) VH: EVQLLESGGGLVQPGGSLRLSCAASGFTFSSYSMNWVRQAPGKGLEWVANINYNGGYKGYADSVKGRFTISRDNSKNTLYLQMNSLRAEDTAVYYCARGATWHDTHLDYWGQGTLVTVSS VL: DIQMTQSPSSLSASVGDRVTITCRASQSILTYLNWYQQKPGKAPKLLIYAVTSLHSGVPSRFSGSGSGTDFTLTISSLQPEDFATYYCQQSYETPLTFGGGTKVEIK",no binding (tested: 1 uM),no binding (tested: 1 uM)
"371_E12 (antibody, V domains shown) VH: EVQLLESGGGLVQPGGSLRLSCAASGFTFDSYSMNWVRQAPGKGLEWVSGINYNSGYKSYADSVKGRFTISRDNSKNTLYLQMNSLRAEDTAVYYCARGATWHDTHLDYWGQGTLVTVSS VL: DIQMTQSPSSLSASVGDRVTITCRASQSILSYLNWYQQKPGKAPKLLIYAATSLASGVPSRFSGSGSGTDFTLTISSLQPEDFATYYCQQSYDTPLTFGGGTKVEIK",no binding (tested: 1 uM),no binding (tested: 1 uM)
"371_B01 (antibody, V domains shown) VH: EVQLLESGGGLVQPGGSLRLSCAASGFTFDSYSMNWVRQAPGKGLEWVSNINYNSGYTGYADSVKGRFTISRDNSKNTLYLQMNSLRAEDTAVYYCARGATWHDTHLDYWGQGTLVTVSS VL: DIQMTQSPSSLSASVGDRVTITCRASQSILSYVNWYQQKPGKAPKLLIYAATSLASGVPSRFSGSGSGTDFTLTISSLQPEDFATYYCQQSYDLPLTFGGGTKVEIK",no binding (tested: 1 uM),no binding (tested: 1 uM)
"371_F09 (antibody, V domains shown) VH: EVQLLESGGGLVQPGGSLRLSCAASGFTFSSYSMNWVRQAPGKGLEWVAGINYNGGYTSYADSVKGRFTISRDNSKNTLYLQMNSLRAEDTAVYYCARGATWHDTHLDYWGQGTLVTVSS VL: DIQMTQSPSSLSASVGDRVTITCRASQSILTYLNWYQQKPGKAPKLLIYAATSRASGVPSRFSGSGSGTDFTLTISSLQPEDFATYYCQQSYDNPLTFGGGTKVEIK",no binding (tested: 1 uM),no binding (tested: 1 uM)
"370_F12 (antibody, V domains shown) VH: EVQLLESGGGLVQPGGSLRLSCAASGFTFSDYSMNWVRQAPGKGLEWVANINYNGGYTGYADSVKGRFTISRDNSKNTLYLQMNSLRAEDTAVYYCARGATWHDTHLDYWGQGTLVTVSS VL: DIQMTQSPSSLSASVGDRVTITCRASQSILSYLNWYQQKPGKAPKLLIYAASSLQSGVPSRFSGSGSGTDFTLTISSLQPEDFATYYCQQSYDSPLTFGGGTKVEIK",no binding (tested: 1 uM),no binding (tested: 1 uM)
